The record followed here is publication PMC12323131, “CSRP2 promotes the glioblastoma mesenchymal phenotype via p130Cas-mediated NF-κB and MAPK pathways” (Journal of Experimental & Clinical Cancer Research : CR, 2025).

These are yes or no findings as the source states them, for the method shown. Binding seen in cells or lysates may run through a third protein. Some entries that bind do so weakly or less than the wild type. For part of these data: Sequences can lack the tags named with a protein.

For experiment [1], the target named is T1, Cysteine-rich protein 2 (CSRP2), endogenous (human (endogenous in U87-MG, U251 and GBM patient tissue)) (UniProt Q16527).
T1 sequence: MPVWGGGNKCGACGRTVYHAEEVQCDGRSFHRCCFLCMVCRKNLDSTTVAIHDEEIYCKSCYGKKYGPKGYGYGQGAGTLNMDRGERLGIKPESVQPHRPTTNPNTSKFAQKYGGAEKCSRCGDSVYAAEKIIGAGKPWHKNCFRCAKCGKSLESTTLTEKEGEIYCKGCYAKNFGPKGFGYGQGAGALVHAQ
Put plainly: co-IP; U87-MG and U251 cell lysates or GBM tissue lysates; IP with an anti-CSRP2 antibody and IgG, protein A/G MagBeads, 4 °C overnight; blot with anti-CSRP2 and anti-p130Cas.

The target in experiment [2] is T2, CSRP2, stably overexpressed in GBM cells (human) (UniProt Q16527).
T2 sequence: T1 sequence
Put plainly: co-IP; U87-MG and U251 cells with stable CSRP2 overexpression, treated with 0.5 µM mitoxantrone (MTO) for 48 h; lysates IP with anti-CSRP2 and anti-p130Cas antibodies and IgG; blot with anti-CSRP2 and anti-p130Cas.

Experiment [3] has as its target T3, CSRP2-Flag (human) (UniProt Q16527).
T3 sequence: T1 sequence
Put plainly: co-IP; HEK 293T cells co-transfected with CSRP2-Flag and p130Cas-HA; lysates IP with anti-Flag and anti-HA antibodies and IgG; blot with anti-Flag and anti-HA.

B1: p130Cas, endogenous (protein, UniProt P56945 1-870)
chain: MNHLNVLAKALYDNVAESPDELSFRKGDIMTVLEQDTQGLDGWWLCSLHGRQGIVPGNRLKILVGMYDKKPAGPGPGPPATPAQPQPGLHAPAPPASQYTPMLPNTYQPQPDSVYLVPTPSKAQQGLYQVPGPSPQFQSPPAKQTSTFSKQTPHHPFPSPATDLYQVPPGPGGPAQDIYQVPPSAGMGHDIYQVPPSMDTRSWEGTKPPAKVVVPTRVGQGYVYEAAQPEQDEYDIPRHLLAPGPQDIYDVPPVRGLLPSQYGQEVYDTPPMAVKGPNGRDPLLEVYDVPPSVEKGLPPSNHHAVYDVPPSVSKDVPDGPLLREETYDVPPAFAKAKPFDPARTPLVLAAPPPDSPPAEDVYDVPPPAPDLYDVPPGLRRPGPGTLYDVPRERVLPPEVADGGVVDSGVYAVPPPAEREAPAEGKRLSASSTGSTRSSQSASSLEVAGPGREPLELEVAVEALARLQQGVSATVAHLLDLAGSAGATGSWRSPSEPQEPLVQDLQAAVAAVQSAVHELLEFARSAVGNAAHTSDRALHAKLSRQLQKMEDVHQTLVAHGQALDAGRGGSGATLEDLDRLVACSRAVPEDAKQLASFLHGNASLLFRRTKATAPGPEGGGTLHPNPTDKTSSIQSRPLPSPPKFTSQDSPDGQYENSEGGWMEDYDYVHLQGKEEFEKTQKELLEKGSITRQGKSQLELQQLKQFERLEQEVSRPIDHDLANWTPAQPLAPGRTGGLGPSDRQLLLFYLEQCEANLTTLTNAVDAFFTAVATNQPPKIFVAHSKFVILSAHKLVFIGDTLSRQAKAADVRSQVTHYSNLLCDLLRGIVATTKAAALQYPSPSAAQDMVERVKELGHSTQQFRRVLGQLAAA
B1: the binding result in experiment [1] and in experiment [2] was “binds” throughout.

B2: p130Cas-HA (protein, UniProt P56945 1-870)
chain: B1 chain
As to B2, the binding entry in experiment [3] is “binds”.
